Our source for the binding values is PMC12638101.

Chains of the proteins cited; added tags and fusions are not shown. Lines headed by an entry give the natural chain unless they say otherwise; changes in a name come on top. Residues count along the entry.
UniProt P11142: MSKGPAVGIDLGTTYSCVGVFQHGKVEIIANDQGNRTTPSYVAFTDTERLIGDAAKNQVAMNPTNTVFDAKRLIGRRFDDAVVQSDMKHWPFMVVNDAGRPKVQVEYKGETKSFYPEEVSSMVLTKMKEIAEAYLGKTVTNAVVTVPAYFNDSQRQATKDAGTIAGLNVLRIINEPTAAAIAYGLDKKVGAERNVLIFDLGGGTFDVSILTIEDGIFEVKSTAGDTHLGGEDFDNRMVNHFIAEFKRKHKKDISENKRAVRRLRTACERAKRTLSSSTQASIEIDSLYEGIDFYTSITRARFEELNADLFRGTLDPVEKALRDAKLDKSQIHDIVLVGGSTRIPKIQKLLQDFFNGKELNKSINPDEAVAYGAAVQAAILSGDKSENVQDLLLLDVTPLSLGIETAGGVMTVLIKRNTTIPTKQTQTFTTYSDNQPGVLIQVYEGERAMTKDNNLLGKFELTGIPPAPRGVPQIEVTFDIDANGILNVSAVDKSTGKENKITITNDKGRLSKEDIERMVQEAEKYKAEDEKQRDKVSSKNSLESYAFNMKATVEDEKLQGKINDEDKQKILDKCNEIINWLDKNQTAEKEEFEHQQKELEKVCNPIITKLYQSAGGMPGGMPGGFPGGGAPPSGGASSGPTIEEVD
FLAG-HSC70 (aa 1-386): residues 1-386 of P11142
UniProt P46937: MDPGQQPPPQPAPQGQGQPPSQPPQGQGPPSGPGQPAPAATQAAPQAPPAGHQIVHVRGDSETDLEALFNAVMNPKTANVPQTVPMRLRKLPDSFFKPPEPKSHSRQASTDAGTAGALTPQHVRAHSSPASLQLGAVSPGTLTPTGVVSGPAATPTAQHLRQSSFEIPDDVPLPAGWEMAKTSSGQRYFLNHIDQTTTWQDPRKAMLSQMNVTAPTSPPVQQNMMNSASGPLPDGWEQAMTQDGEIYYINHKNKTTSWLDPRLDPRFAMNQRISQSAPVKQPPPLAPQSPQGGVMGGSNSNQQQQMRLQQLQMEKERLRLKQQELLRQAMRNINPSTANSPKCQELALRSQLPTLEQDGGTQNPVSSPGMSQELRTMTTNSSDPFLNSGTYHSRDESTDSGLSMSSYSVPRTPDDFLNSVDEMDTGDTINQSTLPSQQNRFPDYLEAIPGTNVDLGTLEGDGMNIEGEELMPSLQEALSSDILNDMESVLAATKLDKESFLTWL

These are yes or no findings as the source states them, for the method shown. Binding seen in cells or lysates may run through a third protein. Some entries that bind do so weakly or less than the wild type.

In one assay the target is FLAG-HSC70 (UniProt P11142). The assay can be described thus: co-IP; Huh-7.5 cells co-transfected, harvested 48 h after transfection; lysate (150 mM NaCl, 50 mM Tris-HCl pH 7.5, 1% NP-40, 0.1% SDS, 1% sodium deoxycholic acid, 1 mM EDTA) immunoprecipitated with anti-FLAG mAb at 4°C, five washes, blot with anti-HA and anti-FLAG.
Another assay deals with FLAG-HSC70 (aa 1-386) (UniProt P11142). The assay is described as above.

Turning to “HA-YAP1 wild-type (Yes-associated protein 1) (from UniProt P46937 1-504)”, the binding entry with FLAG-HSC70 is on record as “binds”; with FLAG-HSC70 (aa 1-386), “no binding”.

Take “YAP1 phosphorylated at serine 127 (from UniProt P46937 1-504)”: the binding result with FLAG-HSC70 is listed as “binds”.
